Measurements reported in PubChem BioAssay AID1259254 (NCATS, 2017)
Test: 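Gene knock-downs that lead to re-replication, shown by excess G2 DNA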 (primary screen). Cells: human HCT116 colorectal cancer cells. Reagent: single siRNA against human genes. Duration: 3 days. Measurement: 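Imaged Hoechst DNA stain sorts each cell into a cycle phase by DNA amount; per plate, G2 fraction set to 0% for non-targeting and 100% for GMNN siRNA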. Direction: G2 robust z-score and G2 cells, % of GMNN control: higher = more G2 cells, more excess DNA replication. Active means: 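An siRNA counts as active if its G2 robust z-score lies at least 5 MADs above the screen median; here such calls match roughly 38% of GMNN control or more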.
The whole screen tested about 59,000 reagents; shown is a random part of them. About 1,550 of them (2.6%) count as active. 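G2 share is only a proxy for re-replication; each gene was hit by three separate siRNAs, and active genes were retested.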 Unmarked entries are inactive. The numbers tell different reagents against one gene apart. Further read-outs or replicates are left out here. Reagent sequences are not shown. The record does not give: the amount of reagent.

gene knocked down,reagent no.,G2 robust z-score,"G2 cells, % of GMNN control"
FADS6,1,6.92 (active),51.7
FADS6,2,0.395,5.75
FADS6,3,1.48,13.4
CMIP,1,-0.118,2.14
CMIP,2,0.848,8.94
CMIP,3,-0.557,-0.951
TNFAIP2,1,2.22,18.6
TNFAIP2,2,-0.35,0.505
TNFAIP2,3,-0.341,0.572
COA4,1,-1.65,-8.61
COA4,2,-0.122,2.11
COA4,3,0.861,9.03
KRT27,1,0.485,6.38
KRT27,2,0.131,3.89
KRT27,3,-0.656,-1.65
CPNE6,1,4.47,34.4
CPNE6,2,1.52,13.7
CPNE6,3,0.964,9.75
P2RX1,1,-0.753,-2.33
P2RX1,2,-0.137,2.01
P2RX1,3,-0.686,-1.86
ADHFE1,1,2.97,23.9
ADHFE1,2,-0.465,-0.303
ADHFE1,3,4.19,32.5
EMSY,1,-0.647,-1.59
EMSY,2,0.354,5.46
EMSY,3,3.79,29.6
C14orf119,1,-0.516,-0.666
C14orf119,2,2.17,18.2
C14orf119,3,1.08,10.6

Records above called active, once more:
gene knocked down,reagent no.,G2 robust z-score,"G2 cells, % of GMNN control"
FADS6,1,6.92 (active),51.7
